Measured data: PubChem BioAssay AID1259286 (Sanger Institute, 2017)
Test: 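Kinases whose loss adds to targeted drug killing of colorectal cancer cells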 (primary screen). Cells: NCI-H630 human colorectal cancer cells. Reagents: siRNA pool against human genes. Conditions: anchor drugs BYL719 at 1 µM, cetuximab at 5 µg/ml or trametinib at 10 nM, or DMSO vehicle alone; exposure time not given. Detection: 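Replicate-averaged viability as a fraction of non-targeting control, knock-down-alone robust z-score, and per-drug synergy scores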. Direction: viability z-score, knock-down alone: higher = more viable cells, weaker knock-down effect; viability vs control, knock-down alone: higher = more viable cells. Units: viability vs control, knock-down alone in fraction of control. Hit rule: 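Essential call: robust z-score of viability with siRNA alone lower than -3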. Meaning of the calls: active = essential when knocked down alone; inactive = not essential alone.
The whole screen tested 794 reagents; shown is an unselected part. Of all reagents, 17 (2.1%) were called active. 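Calls use knock-down alone only; synergy above 0.15 marked separately; viability seems capped at control level; exposure time not given.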 Further read-outs or replicates are left out here. No sequences are given here. Not given: the amount of reagent, the time to read-out.

KSR2 (kinase suppressor of ras 2) — viability z-score, knock-down alone: 0.464; viability vs control, knock-down alone: 1; Call: inactive
SYNCRIP (synaptotagmin binding cytoplasmic RNA interacting protein) — viability z-score, knock-down alone: -1.02; viability vs control, knock-down alone: 0.944; Call: inactive
TP53 (tumor protein p53) — viability z-score, knock-down alone: 0.091; viability vs control, knock-down alone: 0.986; Call: inactive
PRPS1 (phosphoribosyl pyrophosphate synthetase 1) — viability z-score, knock-down alone: 0.464; viability vs control, knock-down alone: 1; Call: inactive
MAP4K1 (mitogen-activated protein kinase kinase kinase kinase 1) — viability z-score, knock-down alone: 0.239; viability vs control, knock-down alone: 0.991; Call: inactive
MAP3K5 (mitogen-activated protein kinase kinase kinase 5) — viability z-score, knock-down alone: 0.464; viability vs control, knock-down alone: 1; Call: inactive
GUCY2D (guanylate cyclase 2D, retinal) — viability z-score, knock-down alone: -2.95; viability vs control, knock-down alone: 0.871; Call: inactive
TRIB2 (tribbles pseudokinase 2) — viability z-score, knock-down alone: 0.142; viability vs control, knock-down alone: 0.988; Call: inactive
EFNA3 (ephrin A3) — viability z-score, knock-down alone: 0.464; viability vs control, knock-down alone: 1; Call: inactive
LRRK1 (leucine rich repeat kinase 1) — viability z-score, knock-down alone: 0.464; viability vs control, knock-down alone: 1; Call: inactive
ACVR2B (activin A receptor type 2B) — viability z-score, knock-down alone: 0.464; viability vs control, knock-down alone: 1; Call: inactive
PACSIN1 (protein kinase C and casein kinase substrate in neurons 1) — viability z-score, knock-down alone: 0.464; viability vs control, knock-down alone: 1; Call: inactive
PXK (PX domain containing serine/threonine kinase like) — viability z-score, knock-down alone: 0.097; viability vs control, knock-down alone: 0.986; Call: inactive
MARK3 (microtubule affinity regulating kinase 3) — viability z-score, knock-down alone: 0.464; viability vs control, knock-down alone: 1; Call: inactive
AK1 (adenylate kinase 1) — viability z-score, knock-down alone: 0.464; viability vs control, knock-down alone: 1; Call: inactive
GAK (cyclin G associated kinase) — viability z-score, knock-down alone: 0.464; viability vs control, knock-down alone: 1; Call: inactive
EPHA7 (EPH receptor A7) — viability z-score, knock-down alone: 0.0854; viability vs control, knock-down alone: 0.986; Call: inactive
TTBK1 (tau tubulin kinase 1) — viability z-score, knock-down alone: 0.464; viability vs control, knock-down alone: 1; Call: inactive
MPP2 (MAGUK p55 scaffold protein 2) — viability z-score, knock-down alone: 0.162; viability vs control, knock-down alone: 0.989; Call: inactive
KALRN (kalirin RhoGEF kinase) — viability z-score, knock-down alone: 0.464; viability vs control, knock-down alone: 1; Call: inactive
CSNK2A2 (casein kinase 2 alpha 2) — viability z-score, knock-down alone: -1.84; viability vs control, knock-down alone: 0.913; Call: inactive
NEK9 (NIMA related kinase 9) — viability z-score, knock-down alone: 0.464; viability vs control, knock-down alone: 1; Call: inactive
PRKAR1A — viability z-score, knock-down alone: 0.464; viability vs control, knock-down alone: 1; Call: inactive
MYO3B (myosin IIIB) — viability z-score, knock-down alone: -0.549; viability vs control, knock-down alone: 0.962; Call: inactive
DCLK2 (doublecortin like kinase 2) — viability z-score, knock-down alone: 0.464; viability vs control, knock-down alone: 1; Call: inactive
ATR (ATR checkpoint kinase) — viability z-score, knock-down alone: 0.464; viability vs control, knock-down alone: 1; Call: inactive
PRKCB (protein kinase C beta) — viability z-score, knock-down alone: 0.464; viability vs control, knock-down alone: 1; Call: inactive
CAMK2B (calcium/calmodulin dependent protein kinase II beta) — viability z-score, knock-down alone: 0.464; viability vs control, knock-down alone: 1; Call: inactive

5 entries from above in another layout:
| Target gene | viability z-score, knock-down alone | viability vs control, knock-down alone | Call |
| --- | --- | --- | --- |
| CSNK2A2 (casein kinase 2 alpha 2) | -1.84 | 0.913 | inactive |
| NEK9 (NIMA related kinase 9) | 0.464 | 1 | inactive |
| PRKAR1A | 0.464 | 1 | inactive |
| MYO3B (myosin IIIB) | -0.549 | 0.962 | inactive |
| DCLK2 (doublecortin like kinase 2) | 0.464 | 1 | inactive |
